Where a name gives a salt, the structure may show the parent alone. Some entries share one result that the patent states for a list of compounds.
Assays:
[1] = target: T1, human form of induced nitric oxide synthase (Homo sapiens, UniProt P35228); experiment: Screen 2: activity against the human form of induced nitric oxide synthase, enzyme from induced DLD1 cell lysate; format: biochemical; conditions: DLD1 cell lysate (IFN-γ/IL-1β induced), preincubation 1 hour at 37° C., further 1 hour at 37° C., read-out: IC50 (concentration of drug substance which gives 50% enzyme inhibition in the assay)
T1 construct: Nitric oxide synthase is produced by cells in response to interferon-γ (IFN-γ) and interleukin-1β (IL-1β); host or cells: DLD1 human colon adenocarcinoma cells, induced with IL-1beta and IFN-gamma; Triton X-100 cell lysate

[2] = target: T2, nitric oxide synthase (induced, from murine macrophage cell line J774A-1) (Mus musculus, UniProt P29477); experiment: Screen 1: nitric oxide synthetase inhibiting activity (conversion of 3H-L-arginine into 3H-L-citrulline), enzyme from induced J774A-1 cell lysate; format: biochemical; conditions: J774A-1 cell lysate (IFNg/LPS induced), 1 hour at room temperature, read-out: IC50 (concentration of drug substance which gives 50% enzyme inhibition in the assay)
T2 construct: Nitric oxide synthase is produced by cells in response to interferon-g (IFNg) and lipopolysaccharide (LPS); host or cells: J774A-1 murine macrophages, induced with LPS and IFN-gamma; Triton X-100 cell lysate

Structure (SMILES) | IC50 [1] [µM] | IC50 [2] [µM]
N#Cc1ccc(C(=O)N2CCC3(CC2)N=C(N)c2ncccc2N3)cc1 [Example 6, 4'-Amino-(4-cyanobenzoyl)-spiro[piperidine-4,2'-[1'H]-(pyrido[3,2-d]pyrimidine)]hydrochloride] | < 25 | < 25
NC1=NC2(CCN(C(=O)c3cccs3)CC2)Nc2cccnc21 [Example 7, 4'-Amino-(2-thienoyl)-spiro[piperidine-4,2'-[1'H]-(pyrido[3,2-d]pyrimidine)]hydrochloride] | < 25 | < 25
CCOC(=O)N1CCC2(CC1)N=C(N)c1c(Cl)csc1N2 [Example 5, Ethyl 4'-amino-3'-chlorospiro[piperidine-4,6'(7'H)-thieno[2,3-d]pyrimidine]-1-carboxylate hydrochloride] | < 25 | < 25
CCOC(=O)N1CCC2(CC1)N=C(N)c1ncccc1N2 [Example 8, Ethyl 4'-aminospiro[piperidine-4,2'-[1']-(pyrido-[3,2-d]pyrimidine)]-1-carboxylate hydrochloride] | < 25 | < 25
N#Cc1ccc(C(=O)N2CCC3(CC2)N=C(N)c2cnccc2N3)cc1 [Example 11, 4'-Amino-(4-cyanobenzoyl)-spiro[piperidine-4,2'-[1'H]-(pyrido-[4,3-d]pyrimidine)]hydrochloride] | < 25 | < 25
NC1=NC(c2ccccc2)Nc2ccsc21 (centres unmarked) [Example 1, 7-Amino-4,5-dihydro-5-phenylthieno[3,2-d]pyrimidine hydrochloride] | < 25 | < 25
CCOC(=O)N1CCC2(CC1)N=C(N)c1ccncc1N2 [Example 10, Ethyl 4'-aminospiro[piperidine-4,2'[1'H]-(pyrido-[3,4-d]-pyrimidine)]-1-carboxylate hydrochloride] | < 25 | < 25
N#Cc1ccc(C(=O)N2CCC3(CC2)N=C(N)c2sccc2N3)cn1 [Example 14, 7'-Amino-1-(6-cyano-3-pyridinecarbonyl)spiro[piperidine-4,5'-(4'H)-(thieno[3,2-d]-pyrimidine)]hydroiodide] | < 25 | < 25
N#Cc1ccc(C(=O)N2CCC3(CC2)N=C(N)c2ccncc2N3)cc1 [Example 9, 4'-Amino-(4-cyanobenzoyl)-spiro[piperidine-4,2'-[1'H]-(pyrido-[3,4-d]pyrimidine)]hydrochloride] | < 25 | < 25
Nc1nc(-c2cccs2)nc2cccnc12 [Example 13, 4-Amino-2-(2-thienyl)-pyrido[3,2-d]pyrimidine hydrochloride] | < 25 | < 25
